Results published in the supplement of paper PMC10849652.
The list shows a part of the results.

Chains of the proteins cited; added tags and fusions are not shown. Lines headed by an entry give the natural chain unless they say otherwise; changes in a name come on top.
UniProt Q9BRT9, whole entry, looked up: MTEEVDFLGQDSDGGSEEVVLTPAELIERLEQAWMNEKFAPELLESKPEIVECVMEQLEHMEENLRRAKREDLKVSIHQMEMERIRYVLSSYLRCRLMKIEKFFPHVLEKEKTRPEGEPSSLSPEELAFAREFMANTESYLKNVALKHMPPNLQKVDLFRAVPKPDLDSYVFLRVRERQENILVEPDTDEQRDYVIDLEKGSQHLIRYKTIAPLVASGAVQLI
UniProt Q8IW92: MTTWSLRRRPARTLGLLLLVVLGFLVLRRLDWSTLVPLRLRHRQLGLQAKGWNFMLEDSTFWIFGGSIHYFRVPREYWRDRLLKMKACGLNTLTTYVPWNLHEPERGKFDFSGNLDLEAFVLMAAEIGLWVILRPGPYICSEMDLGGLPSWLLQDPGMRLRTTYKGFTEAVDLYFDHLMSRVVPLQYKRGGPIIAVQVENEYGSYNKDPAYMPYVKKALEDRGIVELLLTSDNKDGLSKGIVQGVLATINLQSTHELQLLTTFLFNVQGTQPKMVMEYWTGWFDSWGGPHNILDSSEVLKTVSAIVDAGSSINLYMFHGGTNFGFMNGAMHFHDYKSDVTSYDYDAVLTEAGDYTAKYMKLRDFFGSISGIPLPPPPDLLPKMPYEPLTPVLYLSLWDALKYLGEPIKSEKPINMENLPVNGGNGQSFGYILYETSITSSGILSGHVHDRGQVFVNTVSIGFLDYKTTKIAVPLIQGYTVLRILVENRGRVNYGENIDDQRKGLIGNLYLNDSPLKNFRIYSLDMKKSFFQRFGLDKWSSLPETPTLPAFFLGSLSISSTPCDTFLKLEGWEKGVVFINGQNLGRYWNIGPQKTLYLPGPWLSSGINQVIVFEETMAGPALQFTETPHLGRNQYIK
UniProt O75496: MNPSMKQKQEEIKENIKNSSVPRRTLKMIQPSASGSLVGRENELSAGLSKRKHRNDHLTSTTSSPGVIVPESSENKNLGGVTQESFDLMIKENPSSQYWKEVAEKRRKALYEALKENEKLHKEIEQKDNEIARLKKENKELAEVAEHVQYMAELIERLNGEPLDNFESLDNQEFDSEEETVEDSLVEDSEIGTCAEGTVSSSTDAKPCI
UniProt Q08379: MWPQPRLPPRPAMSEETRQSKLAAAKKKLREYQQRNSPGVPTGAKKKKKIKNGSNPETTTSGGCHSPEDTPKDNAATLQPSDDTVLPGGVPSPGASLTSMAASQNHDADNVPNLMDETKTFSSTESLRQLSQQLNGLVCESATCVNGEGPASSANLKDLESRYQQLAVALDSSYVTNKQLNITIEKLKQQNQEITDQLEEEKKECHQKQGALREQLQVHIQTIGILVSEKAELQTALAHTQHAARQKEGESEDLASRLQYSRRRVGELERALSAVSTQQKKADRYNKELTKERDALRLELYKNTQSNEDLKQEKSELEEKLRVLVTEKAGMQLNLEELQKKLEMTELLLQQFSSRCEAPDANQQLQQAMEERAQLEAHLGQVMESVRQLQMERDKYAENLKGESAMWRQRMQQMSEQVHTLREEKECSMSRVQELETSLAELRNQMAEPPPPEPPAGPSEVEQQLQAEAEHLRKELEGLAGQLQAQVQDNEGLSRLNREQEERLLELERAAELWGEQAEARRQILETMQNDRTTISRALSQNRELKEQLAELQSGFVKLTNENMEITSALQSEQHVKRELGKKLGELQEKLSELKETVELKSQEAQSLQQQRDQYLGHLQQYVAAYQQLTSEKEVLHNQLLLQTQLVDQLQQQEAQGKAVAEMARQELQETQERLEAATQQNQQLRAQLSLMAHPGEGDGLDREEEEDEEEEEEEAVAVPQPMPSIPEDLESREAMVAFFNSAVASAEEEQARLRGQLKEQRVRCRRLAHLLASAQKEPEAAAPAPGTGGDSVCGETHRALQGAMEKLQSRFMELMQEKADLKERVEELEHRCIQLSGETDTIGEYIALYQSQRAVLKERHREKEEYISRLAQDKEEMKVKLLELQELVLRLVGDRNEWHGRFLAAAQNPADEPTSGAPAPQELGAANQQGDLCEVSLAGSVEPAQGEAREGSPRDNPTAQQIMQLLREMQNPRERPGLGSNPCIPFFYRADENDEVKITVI
UniProt Q9Y3E0: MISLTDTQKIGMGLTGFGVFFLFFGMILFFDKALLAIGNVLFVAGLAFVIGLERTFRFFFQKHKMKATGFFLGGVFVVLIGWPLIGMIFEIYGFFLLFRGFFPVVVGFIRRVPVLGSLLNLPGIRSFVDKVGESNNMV
UniProt P43304: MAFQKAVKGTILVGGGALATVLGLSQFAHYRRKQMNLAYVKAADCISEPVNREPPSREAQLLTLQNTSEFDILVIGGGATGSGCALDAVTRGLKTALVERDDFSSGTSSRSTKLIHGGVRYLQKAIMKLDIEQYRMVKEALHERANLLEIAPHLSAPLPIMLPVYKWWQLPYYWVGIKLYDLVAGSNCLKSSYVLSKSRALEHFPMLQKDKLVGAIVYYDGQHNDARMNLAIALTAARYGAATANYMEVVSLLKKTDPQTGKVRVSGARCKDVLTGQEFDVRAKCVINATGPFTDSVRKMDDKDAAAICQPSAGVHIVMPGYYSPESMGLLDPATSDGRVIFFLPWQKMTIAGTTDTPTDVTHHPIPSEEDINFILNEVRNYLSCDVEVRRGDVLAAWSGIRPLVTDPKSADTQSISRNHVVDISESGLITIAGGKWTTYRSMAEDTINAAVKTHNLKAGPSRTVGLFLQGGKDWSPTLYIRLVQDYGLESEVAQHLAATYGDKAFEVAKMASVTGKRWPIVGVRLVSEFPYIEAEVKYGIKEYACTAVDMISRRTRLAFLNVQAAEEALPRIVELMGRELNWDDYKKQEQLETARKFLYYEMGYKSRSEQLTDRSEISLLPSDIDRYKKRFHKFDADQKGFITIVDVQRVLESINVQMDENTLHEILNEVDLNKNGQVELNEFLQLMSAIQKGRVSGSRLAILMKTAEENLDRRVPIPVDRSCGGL
UniProt O15228: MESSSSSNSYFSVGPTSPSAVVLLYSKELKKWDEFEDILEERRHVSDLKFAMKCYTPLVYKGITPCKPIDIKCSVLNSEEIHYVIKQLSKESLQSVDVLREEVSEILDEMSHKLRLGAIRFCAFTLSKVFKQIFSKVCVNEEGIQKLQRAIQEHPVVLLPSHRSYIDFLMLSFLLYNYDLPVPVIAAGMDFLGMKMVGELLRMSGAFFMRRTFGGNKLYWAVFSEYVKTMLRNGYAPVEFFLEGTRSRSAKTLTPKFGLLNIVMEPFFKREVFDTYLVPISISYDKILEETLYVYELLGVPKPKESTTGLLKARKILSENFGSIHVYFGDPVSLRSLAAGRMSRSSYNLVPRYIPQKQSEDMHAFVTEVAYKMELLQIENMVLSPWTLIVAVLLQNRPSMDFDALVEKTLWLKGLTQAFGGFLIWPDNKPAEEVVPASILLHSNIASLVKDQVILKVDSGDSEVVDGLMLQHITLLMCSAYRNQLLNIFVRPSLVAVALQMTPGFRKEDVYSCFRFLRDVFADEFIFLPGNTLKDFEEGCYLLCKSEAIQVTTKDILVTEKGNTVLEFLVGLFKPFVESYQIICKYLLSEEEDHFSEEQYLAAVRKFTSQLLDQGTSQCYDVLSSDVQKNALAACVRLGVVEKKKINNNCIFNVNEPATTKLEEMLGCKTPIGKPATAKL
UniProt Q04760: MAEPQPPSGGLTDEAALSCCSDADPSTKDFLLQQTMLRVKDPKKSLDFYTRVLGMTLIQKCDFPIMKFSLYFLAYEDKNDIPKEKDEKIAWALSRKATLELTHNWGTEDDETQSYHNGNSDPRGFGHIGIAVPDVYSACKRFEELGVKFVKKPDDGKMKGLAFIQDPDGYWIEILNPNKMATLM
UniProt Q9HAV7: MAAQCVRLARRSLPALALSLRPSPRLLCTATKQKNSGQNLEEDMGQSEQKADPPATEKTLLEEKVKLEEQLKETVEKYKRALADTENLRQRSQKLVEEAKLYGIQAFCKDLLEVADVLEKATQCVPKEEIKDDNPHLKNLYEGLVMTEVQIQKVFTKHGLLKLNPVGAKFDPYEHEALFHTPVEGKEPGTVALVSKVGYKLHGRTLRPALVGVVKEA
UniProt Q9Y223: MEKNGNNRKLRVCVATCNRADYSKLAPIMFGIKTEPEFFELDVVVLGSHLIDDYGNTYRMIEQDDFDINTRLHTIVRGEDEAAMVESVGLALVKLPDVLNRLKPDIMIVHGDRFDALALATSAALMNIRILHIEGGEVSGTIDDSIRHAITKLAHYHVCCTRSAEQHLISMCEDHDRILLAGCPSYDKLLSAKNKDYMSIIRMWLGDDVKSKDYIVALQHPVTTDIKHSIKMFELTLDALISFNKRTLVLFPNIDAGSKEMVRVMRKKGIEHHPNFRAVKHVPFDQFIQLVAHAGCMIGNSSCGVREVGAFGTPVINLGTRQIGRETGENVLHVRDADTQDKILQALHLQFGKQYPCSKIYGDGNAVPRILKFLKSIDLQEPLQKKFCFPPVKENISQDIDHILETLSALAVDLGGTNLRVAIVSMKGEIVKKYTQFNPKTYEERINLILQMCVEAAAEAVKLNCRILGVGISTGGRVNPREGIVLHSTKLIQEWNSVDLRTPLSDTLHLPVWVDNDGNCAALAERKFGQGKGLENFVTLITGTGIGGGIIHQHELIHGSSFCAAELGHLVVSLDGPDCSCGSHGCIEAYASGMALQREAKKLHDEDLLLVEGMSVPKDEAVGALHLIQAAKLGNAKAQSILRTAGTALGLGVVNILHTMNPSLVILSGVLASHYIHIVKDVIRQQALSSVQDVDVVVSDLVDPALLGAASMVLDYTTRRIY
UniProt P17900: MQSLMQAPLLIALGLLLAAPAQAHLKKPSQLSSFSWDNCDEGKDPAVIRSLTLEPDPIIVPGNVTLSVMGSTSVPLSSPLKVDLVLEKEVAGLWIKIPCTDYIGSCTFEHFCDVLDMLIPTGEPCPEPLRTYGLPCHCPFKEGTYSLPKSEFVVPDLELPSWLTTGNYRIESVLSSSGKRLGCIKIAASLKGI
UniProt P60983, whole entry, looked up: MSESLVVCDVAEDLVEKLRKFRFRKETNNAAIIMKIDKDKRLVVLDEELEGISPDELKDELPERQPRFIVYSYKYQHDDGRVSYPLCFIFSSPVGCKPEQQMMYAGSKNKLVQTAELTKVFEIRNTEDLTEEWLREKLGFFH
UniProt O43292: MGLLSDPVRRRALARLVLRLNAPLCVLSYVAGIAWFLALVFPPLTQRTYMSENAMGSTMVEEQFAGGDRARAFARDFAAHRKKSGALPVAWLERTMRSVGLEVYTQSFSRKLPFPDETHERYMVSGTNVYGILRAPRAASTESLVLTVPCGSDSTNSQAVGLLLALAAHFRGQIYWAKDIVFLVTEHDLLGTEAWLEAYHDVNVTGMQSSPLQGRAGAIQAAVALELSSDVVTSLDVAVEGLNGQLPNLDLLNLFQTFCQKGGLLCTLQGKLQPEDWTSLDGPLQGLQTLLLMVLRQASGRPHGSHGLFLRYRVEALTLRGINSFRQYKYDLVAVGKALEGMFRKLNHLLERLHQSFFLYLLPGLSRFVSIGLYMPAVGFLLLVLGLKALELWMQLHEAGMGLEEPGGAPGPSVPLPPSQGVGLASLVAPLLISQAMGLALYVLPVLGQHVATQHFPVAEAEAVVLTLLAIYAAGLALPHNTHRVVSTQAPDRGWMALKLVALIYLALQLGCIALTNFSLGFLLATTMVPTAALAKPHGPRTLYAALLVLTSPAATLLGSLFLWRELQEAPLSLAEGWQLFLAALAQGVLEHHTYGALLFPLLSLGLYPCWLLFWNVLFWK
UniProt O94925: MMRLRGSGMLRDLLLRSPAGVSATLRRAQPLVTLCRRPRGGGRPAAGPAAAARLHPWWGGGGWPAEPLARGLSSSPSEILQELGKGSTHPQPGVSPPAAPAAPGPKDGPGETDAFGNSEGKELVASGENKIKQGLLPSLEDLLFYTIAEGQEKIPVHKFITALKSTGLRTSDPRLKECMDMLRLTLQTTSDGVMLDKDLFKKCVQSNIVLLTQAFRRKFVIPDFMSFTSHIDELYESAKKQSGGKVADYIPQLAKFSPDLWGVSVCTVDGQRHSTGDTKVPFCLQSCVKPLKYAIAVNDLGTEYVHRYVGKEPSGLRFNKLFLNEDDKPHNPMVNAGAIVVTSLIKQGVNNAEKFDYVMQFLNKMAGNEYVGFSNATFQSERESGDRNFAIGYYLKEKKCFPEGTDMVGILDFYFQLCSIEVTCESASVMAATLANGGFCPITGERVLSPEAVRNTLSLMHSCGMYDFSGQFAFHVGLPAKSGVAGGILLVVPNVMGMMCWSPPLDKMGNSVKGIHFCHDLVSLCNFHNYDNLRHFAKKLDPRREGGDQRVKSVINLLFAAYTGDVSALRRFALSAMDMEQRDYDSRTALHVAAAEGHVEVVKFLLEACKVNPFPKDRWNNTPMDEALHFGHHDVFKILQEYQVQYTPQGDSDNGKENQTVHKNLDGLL

Legend:
Test in all cases: log2 fold change, soluble protein after heating vs DMSO (PISA); higher = thermal stabilisation; K562 cells, 10 uM, 30 min; active = over 0.2 and 3.5 SD of the protein, either way, in both replicates (recomputed)
bafetinib = compound: Cc1ccc(NC(=O)c2ccc(CN3CC[C@H](N(C)C)C3)c(C(F)(F)F)c2)cc1Nc1nccc(-c2cncnc2)n1 [bafetinib]
In short: (§1)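 Thermal stability values are relative to control samples and come from duplicates. They are expressed as log2 fold changes. For measurement, K562 cells (2×10^6 cells/mL) received 10 μM compound for 30 min, and aliquots were heated for 3 min over 48°C-58°C, pooled, and extracted at 4°C in PBS with 0.5% NP-40. Soluble protein, the supernatant after 21,000xg for 90 min, was quantified by TMTpro 16plex LC-MS/MS with equalised channel sums.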

[1] = compound: Cc1cccc(CC(=O)N2CCc3c2ccc(-c2cn(C)c4ncnc(N)c24)c3F)n1
In short: as §1

nilotinib = compound: Cc1cn(-c2cc(NC(=O)c3ccc(C)c(Nc4nccc(-c5cccnc5)n4)c3)cc(C(F)(F)F)c2)cn1 [nilotinib]
In short: as §1

[2] = compound: Cc1nc(Nc2n[nH]c3c2CN(C(=O)N[C@H](CN(C)C)c2ccccc2)C3(C)C)c2sccc2n1
In short: as §1

dasatinib = compound: Cc1nc(Nc2ncc(C(=O)Nc3c(C)cccc3Cl)s2)cc(N2CCN(CCO)CC2)n1 [dasatinib]
In short: as §1

[3] = compound: Cc1ncc(-c2ccnc(Nc3ccc(S(C)(=O)=O)cc3)n2)n1C(C)C
In short: as §1

[4] = compound: Cn1cc(-c2ccc3c(c2)CCN3C(=O)Cc2cccc(C(F)(F)F)c2)c2c(N)ncnc21
In short: as §1

[5] = compound: Cn1cc(-c2ccc3nnc(C(F)(F)c4ccc5ncccc5c4)n3n2)cn1
In short: as §1

tipifarnib = compound: Cn1cncc1[C@@](N)(c1ccc(Cl)cc1)c1ccc2c(c1)c(-c1cccc(Cl)c1)cc(=O)n2C [tipifarnib]
In short: as §1

mubritinib = compound: FC(F)(F)c1ccc(/C=C/c2nc(COc3ccc(CCCCn4ccnn4)cc3)co2)cc1 [mubritinib]
In short: as §1

[6] = compound: NC(=O)Nc1cc(-c2cccc(F)c2)sc1C(=O)N[C@H]1CCCNC1
In short: as §1

[7] = compound: NC(=O)c1cnc(N[C@@H]2CCCC[C@@H]2N)nc1Nc1cccc(-n2nccn2)c1
In short: as §1

[8] = compound: NC1(c2ccc(-c3nc4ccn5c(=O)[nH]nc5c4cc3-c3ccccc3)cc2)CCC1
In short: as §1

[9] = compound: NCC(=O)Nc1ccc(-n2nc(C(F)(F)F)cc2-c2ccc3c(ccc4ccccc43)c2)cc1
In short: as §1

entinostat = compound: Nc1ccccc1NC(=O)c1ccc(CNC(=O)OCc2cccnc2)cc1 [entinostat]
In short: as §1

vorinostat = compound: O=C(CCCCCCC(=O)Nc1ccccc1)NO [vorinostat]
In short: as §1

citarinostat = compound: O=C(CCCCCCNC(=O)c1cnc(N(c2ccccc2)c2ccccc2Cl)nc1)NO [citarinostat]
In short: as §1

silmitasertib = compound: O=C(O)c1ccc2c(c1)nc(Nc1cccc(Cl)c1)c1ccncc12 [silmitasertib]
In short: as §1

[10] = compound: O=C1NC(=O)C(c2cnc3ccccn23)=C1c1cn2c3c(cc(F)cc13)CN(C(=O)N1CCCCC1)CC2
In short: as §1

[11] = compound: c1cc(OCCN2CCCCC2)cc(-c2n[nH]c3ccc(-c4nnc[nH]4)cc23)c1
In short: as §1

Target | log2 fold change (bafetinib) | log2 fold change [1] | log2 fold change (nilotinib) | log2 fold change [2] | log2 fold change (dasatinib) | log2 fold change [3] | log2 fold change [4] | log2 fold change [5] | log2 fold change (tipifarnib) | log2 fold change (mubritinib) | log2 fold change [6] | log2 fold change [7] | log2 fold change [8] | log2 fold change [9] | log2 fold change (entinostat) | log2 fold change (vorinostat) | log2 fold change (citarinostat) | log2 fold change (silmitasertib) | log2 fold change [10] | log2 fold change [11]
GINS4 (UniProt Q9BRT9) | inactive: -0.04 | inactive: 0.076 | inactive: 0.043 | inactive: -0.063 | inactive: -0.106 | inactive: 0.018 | inactive: 0.059 | inactive: 0.027 | inactive: 0.019 | inactive: 0.098 | inactive: -0.001 | inactive: 0.049 | inactive: -0.063 | inactive: -0.003 | inactive: 0.064 | inactive: 0.089 | inactive: 0.082 | inactive: -0.033 | inactive: 0.06 | inactive: -0.015
GLB1L2 (UniProt Q8IW92) | inactive: 0.02 | inactive: -0.097 | inactive: 0.008 | inactive: 0.116 | inactive: 0.104 | inactive: -0.052 | inactive: 0.047 | inactive: 0.09 | inactive: 0.047 | inactive: -0.005 | inactive: 0.06 | inactive: 0.038 | inactive: 0.073 | inactive: 0.017 | inactive: -0.023 | inactive: 0.035 | inactive: 0.066 | inactive: 0.001 | inactive: -0.009 | inactive: -0.042
GMNN (UniProt O75496) | inactive: -0.01 | inactive: -0.079 | inactive: 0.029 | inactive: 0 | inactive: 0.038 | inactive: 0.06 | inactive: 0.009 | inactive: -0.01 | inactive: 0.023 | inactive: 0.033 | inactive: -0.003 | inactive: -0.011 | inactive: -0.012 | inactive: 0.04 | inactive: -0.015 | inactive: -0.035 | inactive: 0.002 | inactive: -0.074 | inactive: 0.004 | inactive: 0.026
GPR89A (UniProt B7ZAQ6) | inactive: -0.047 | inactive: -0.092 | inactive: -0.007 | inactive: 0.036 | inactive: -0.013 | inactive: 0 | inactive: 0.044 | inactive: 0.04 | inactive: -0.041 | inactive: 0 | inactive: 0.027 | inactive: -0.063 | inactive: -0.038 | inactive: 0.036 | inactive: 0.039 | inactive: 0.041 | inactive: 0.108 | inactive: -0.016 | inactive: -0.006 | inactive: -0.083
GOLGA2 (UniProt Q08379) | inactive: -0.009 | inactive: -0.023 | inactive: -0.068 | inactive: -0.06 | inactive: 0.072 | inactive: 0.041 | inactive: -0.112 | inactive: -0.104 | inactive: 0.043 | inactive: -0.085 | inactive: 0.048 | inactive: -0.068 | inactive: 0.047 | inactive: 0.046 | inactive: 0.007 | inactive: 0.076 | inactive: 0.018 | inactive: 0.151 | inactive: 0.053 | inactive: -0.071
GOLT1B (UniProt Q9Y3E0) | inactive: -0.04 | inactive: 0.033 | inactive: -0.075 | inactive: 0.065 | inactive: 0.048 | inactive: -0.013 | inactive: 0.017 | inactive: -0.08 | inactive: -0.061 | inactive: 0.032 | inactive: -0.089 | inactive: -0.054 | inactive: -0.028 | inactive: -0.078 | inactive: -0.038 | inactive: 0.029 | inactive: 0.091 | inactive: -0.015 | inactive: 0.031 | inactive: 0.121
GPD2 (UniProt P43304) | inactive: -0.038 | inactive: -0.057 | inactive: 0 | inactive: -0.002 | inactive: 0.023 | inactive: -0.002 | inactive: 0.002 | inactive: 0 | inactive: 0.039 | inactive: 0.028 | inactive: -0.022 | inactive: 0 | inactive: -0.042 | inactive: -0.055 | inactive: -0.015 | inactive: -0.056 | inactive: 0.016 | inactive: -0.014 | inactive: -0.003 | inactive: -0.018
GNPAT (UniProt O15228) | inactive: -0.129 | inactive: 0.045 | inactive: -0.011 | inactive: -0.008 | inactive: 0.014 | inactive: -0.028 | inactive: 0.059 | inactive: 0.005 | inactive: 0.031 | inactive: 0.005 | inactive: 0.02 | inactive: -0.008 | inactive: -0.066 | inactive: 0 | inactive: 0.021 | inactive: -0.008 | inactive: 0.041 | inactive: -0.041 | inactive: -0.061 | inactive: -0.02
GLO1 (UniProt Q04760) | inactive: -0.01 | inactive: -0.006 | inactive: 0.026 | inactive: 0.002 | inactive: 0.036 | inactive: -0.004 | inactive: 0.023 | inactive: -0.002 | inactive: 0.018 | inactive: 0.041 | inactive: 0.04 | inactive: 0.015 | inactive: 0.014 | inactive: 0.053 | inactive: 0.015 | inactive: -0.019 | inactive: -0.002 | inactive: -0.001 | inactive: -0.038 | inactive: 0.03
GRPEL1 (UniProt Q9HAV7) | inactive: -0.029 | inactive: 0.002 | inactive: -0.001 | inactive: 0.016 | inactive: 0.011 | inactive: -0.01 | inactive: 0.023 | inactive: 0.057 | inactive: -0.012 | inactive: -0.021 | inactive: -0.102 | inactive: -0.053 | inactive: -0.016 | inactive: -0.052 | inactive: 0.024 | inactive: -0.017 | inactive: 0.035 | inactive: -0.016 | inactive: -0.094 | inactive: -0.007
GNE isoform 2 (UniProt Q9Y223) | inactive: 0.076 | inactive: 0.039 | inactive: 0.094 | inactive: 0.069 | inactive: -0.04 | inactive: 0.058 | inactive: 0.1 | inactive: 0.004 | inactive: -0.115 | inactive: 0.031 | inactive: 0.018 | inactive: -0.055 | inactive: -0.105 | inactive: 0.003 | inactive: -0.065 | inactive: 0.032 | inactive: 0.013 | inactive: 0.023 | inactive: 0.02 | inactive: -0.05
GM2A (UniProt P17900) | inactive: -0.069 | inactive: -0.087 | inactive: 0.038 | inactive: -0.002 | inactive: 0.064 | inactive: 0.037 | inactive: 0.017 | inactive: 0.009 | inactive: 0.012 | inactive: -0.025 | inactive: -0.002 | inactive: 0.058 | inactive: -0.035 | inactive: -0.037 | inactive: 0.023 | inactive: -0.062 | inactive: -0.15 | inactive: 0.027 | inactive: -0.037 | inactive: 0.607
GPD1L (UniProt Q8N335) | inactive: -0.044 | inactive: 0.016 | inactive: -0.171 | inactive: -0.099 | inactive: 0.025 | inactive: -0.004 | inactive: 0.11 | inactive: -0.038 | inactive: 0.04 | inactive: 0.112 | inactive: 0.002 | inactive: -0.007 | inactive: -0.017 | inactive: -0.001 | inactive: 0 | inactive: 0.043 | inactive: 0.012 | inactive: -0.051 | inactive: -0.051 | inactive: 0.032
GMFB (UniProt P60983) | inactive: -0.042 | inactive: -0.016 | inactive: 0.018 | inactive: -0.001 | inactive: 0.038 | inactive: 0.014 | inactive: 0.018 | inactive: 0.007 | inactive: 0.016 | inactive: 0.042 | inactive: 0.05 | inactive: 0.012 | inactive: -0.019 | inactive: 0.019 | inactive: -0.003 | inactive: -0.027 | inactive: 0.046 | inactive: -0.026 | inactive: -0.023 | inactive: -0.011
GPAA1 (UniProt O43292) | inactive: -0.047 | inactive: 0.055 | inactive: -0.018 | inactive: 0.034 | inactive: -0.02 | inactive: -0.04 | inactive: 0.01 | inactive: 0.028 | inactive: -0.039 | inactive: -0.001 | inactive: -0.016 | inactive: -0.022 | inactive: -0.077 | inactive: -0.009 | inactive: 0.046 | inactive: 0.001 | inactive: 0.016 | inactive: 0.033 | inactive: -0.013 | inactive: -0.054
GLS isoform 3 (UniProt O94925) | inactive: 0.045 | inactive: 0.028 | inactive: -0.238 | inactive: -0.162 | inactive: -0.282 | inactive: 0.046 | inactive: -0.097 | inactive: 0.114 | inactive: -0.208 | active: -0.492 | inactive: -0.133 | inactive: 0.154 | inactive: -0.285 | inactive: 0.01 | inactive: -0.017 | inactive: 0.019 | inactive: 0.169 | inactive: 0 | inactive: -0.24 | inactive: 0.071

Record cards (already shown). Order of values: log2 fold change (bafetinib)	log2 fold change [1]	log2 fold change (nilotinib)	log2 fold change [2]	log2 fold change (dasatinib)	log2 fold change [3]	log2 fold change [4]	log2 fold change [5]	log2 fold change (tipifarnib)	log2 fold change (mubritinib)	log2 fold change [6]	log2 fold change [7]	log2 fold change [8]	log2 fold change [9]	log2 fold change (entinostat)	log2 fold change (vorinostat)	log2 fold change (citarinostat)	log2 fold change (silmitasertib)	log2 fold change [10]	log2 fold change [11]
GPD2 (UniProt P43304) is listed as inactive: -0.038	inactive: -0.057	inactive: 0	inactive: -0.002	inactive: 0.023	inactive: -0.002	inactive: 0.002	inactive: 0	inactive: 0.039	inactive: 0.028	inactive: -0.022	inactive: 0	inactive: -0.042	inactive: -0.055	inactive: -0.015	inactive: -0.056	inactive: 0.016	inactive: -0.014	inactive: -0.003	inactive: -0.018
GOLGA2 (UniProt Q08379) is listed as inactive: -0.009	inactive: -0.023	inactive: -0.068	inactive: -0.06	inactive: 0.072	inactive: 0.041	inactive: -0.112	inactive: -0.104	inactive: 0.043	inactive: -0.085	inactive: 0.048	inactive: -0.068	inactive: 0.047	inactive: 0.046	inactive: 0.007	inactive: 0.076	inactive: 0.018	inactive: 0.151	inactive: 0.053	inactive: -0.071
